This data set can be described thus: general procedure: solution-phase peptide synthesis. To be noted: for purity (crude or final not stated): 254 nm.

Several values for one entry are separate records, joined by “and”; a condition that tells them apart may be missing. Equal entries are not always repeated. *: point of attachment. Boc = CC(C)(C)OC(=O)*; OtBu = CC(C)(C)O*; tBu = CC(C)(C)*

For “Boc-K(Boc)GD(OtBu)E(OtBu)E(OtBu)S(tBu)LA-OtBu”, for the setting “coupling step, TFA”, the “purity (crude or final not stated)” value is reported as 86% and the step yield came out at 55%.
As to “Cbz-L-Glu(Ot-Bu)-L-Glu(Ot-Bu)-L-Ser(t-Bu)-L-Leu-L-Ala-Ot-Bu”, the “purity (crude or final not stated)” value (coupling step, TFA, run 1) is 93% and 95%.
Regarding “Cbz-L-Gly-L-Asp(Ot-Bu)-L-Glu(Ot-Bu)-L-Glu(Ot-Bu)-L-Ser(t-Bu)-L-Leu-L-Ala-Ot-Bu”, for the setting “coupling step, TFA”, the “purity (crude or final not stated)” value is 90% and the step yield stood at 64%.
With “H-L-Lys-L-Gly-L-Asp-L-Glu-L-Glu-L-Ser-L-Leu-L-Ala-OH-TFA”, the “final HPLC purity” value (late stage modification step, 215 nm, TFA salt) is 98%. For the same substance, the step yield (late stage modification step, TFA salt) was determined as 85%. The isolated yield entry (whole synthesis, overall, TFA salt) is “total yield 13%”.

These data come from patent US20250313594 (published 2025).
